# PubChem BioAssay AID1259308 | NCATS | 2017
# Aim: 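Genes whose loss raises luciferase production in HEK293 cells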 (primary screen)
# System: human HEK293 embryonic kidney cells stably expressing firefly luciferase (HEK-CMV-Luc2-Hygro)
# Reagent: single siRNA against human genes, 0.8 pmol siRNA per well
# Duration: 72 h
# Measurement: 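Luciferase light (ONE-Glo) measured on one replicate plate set and viability (CellTiter-Glo) on the other, scaled to a negative control siRNA, with robust z-scores and luciferase per cell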
# Direction: total luciferase, z-score: higher = more reporter protein produced
# Rule for the call: 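An siRNA counts as active if its total luciferase robust z-score exceeds 3; genes with two or more such siRNAs out of three were retested with fresh siRNAs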
# Calls: active = raised luciferase; inactive = no rise
# This is an unselected part of about 59,000 deposited reagents. In the full data, about 1,510 (2.6%) got an active call. 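Calls use total luciferase alone and ignore viability, so some active siRNAs may act by altering cell number.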 Unmarked entries are inactive. The numbers tell different reagents against one gene apart. Not all columns of the deposit are shown.
gene knocked down,reagent no.,"total luciferase, z-score"
ATP6V1E2,1,-0.358
ATP6V1E2,2,1.07
ATP6V1E2,3,4.48 (active)
GIMAP8,1,0.168
GIMAP8,2,0.0687
GIMAP8,3,-0.969
SEC31A,1,0.986
SEC31A,2,0.196
SEC31A,3,-0.858
PRR30,1,1.49
PRR30,2,0.929
PRR30,3,-1.75
RNF224,1,-1.33
RNF224,2,0.727
RNF224,3,-0.113
GLRA1,1,-0.957
GLRA1,2,-1.14
GLRA1,3,-0.578
TRAF3IP2,1,-0.776
TRAF3IP2,2,0.464
TRAF3IP2,3,0.489
SCGB1A1,1,-0.81
SCGB1A1,2,-1.78
SCGB1A1,3,3.05 (active)
IGHMBP2,1,-1.17
IGHMBP2,2,-1.69
IGHMBP2,3,0.483
CYP3A43,1,-1.71
CYP3A43,2,0.86
CYP3A43,3,0.277
RAD51,1,-0.0681
RAD51,2,-1
RAD51,3,-0.998
EIF3L,1,1.38
EIF3L,2,-1.81
EIF3L,3,-0.0564
VPS26A,1,1.07
VPS26A,2,1.32
VPS26A,3,-0.518
PTPRZ1,1,0.123
PTPRZ1,2,2.17
PTPRZ1,3,-0.274
PPP6R2,1,0.865
PPP6R2,2,0.826
PPP6R2,3,1.71
TSEN54,1,-0.639
TSEN54,2,0.587
TSEN54,3,0.224
SEMA5B,1,-2.28
SEMA5B,2,-0.971
SEMA5B,3,-0.873
HMCN2,1,-1.33
HMCN2,2,-1.52
HMCN2,3,-1.51
HMCN2,4,1.34
HMCN2,5,-0.0947
HMCN2,6,0.394
HMCN2,7,1.67
HMCN2,8,-0.517
HMCN2,9,3.11 (active)

As entered above:
IGHMBP2 #1, total luciferase, z-score: -1.17
PRR30 #2, total luciferase, z-score: 0.929
GLRA1 #3, total luciferase, z-score: -0.578
Under “total luciferase, z-score”, PTPRZ1 #2 has 2.17
